# Test results reported in patent publication US20170319722A1.
# Amino acid sequences for entries named in this document (tags omitted). Residues count along the entry.
# UniProt P01732, residues 22-182: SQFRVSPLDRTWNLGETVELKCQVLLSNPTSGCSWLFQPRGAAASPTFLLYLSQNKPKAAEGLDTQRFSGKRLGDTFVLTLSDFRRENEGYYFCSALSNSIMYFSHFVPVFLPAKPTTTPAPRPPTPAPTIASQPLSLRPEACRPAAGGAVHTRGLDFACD
# No constants are given. Whether binding was seen depends on the method and setting. Some results given as binding are weak or reduced against the parent protein; the word gives no strength.
# Biological target: His-tagged CD8α human recombinant protein (TP760215, Origene) (human) (UniProt P01732)
# Assay: on-bead target screen, 150 nM His-tagged CD8α, anti-His-AP, BCIP/NBT
row,binding,Binder
1,binds,"KRLGA (on TentaGel bead; N-terminal Pra; triazole-cyclized; C-terminal Met-TG) [H2N-Pra-Cy(KRLGA-click)-Met-TG, hit2 of Table 1 (on bead)]"
2,binds,"HGSYG (on TentaGel bead; N-terminal Pra; triazole-cyclized; C-terminal Met-TG) [H2N-Pra-Cy(HGSYG-click)-Met-TG, hit1 of Table 1 (on bead)]"
3,binds,"AKYRG (on TentaGel bead; N-terminal Pra; triazole-cyclized; C-terminal Met-TG) [H2N-Pra-Cy(AKYRG-click)-Met-TG, hit3 of Table 1 (on bead)]"

# Biological target: His-tagged CD8α human recombinant protein (TP760215, Origene) (human) (UniProt P01732)
# Assay: point ELISA, 50 nM His-tagged CD8α in human serum, immobilised ligand
row,binding,Binder
1,binds,AKYRG (N-terminal biotin-PEG3; triazole-cyclized (Cy) between flanking Pra and Az4) [biotin-PEG3-Cy(AKYRG)]
2,binds,PWTHG (N-terminal biotin-PEG3; triazole-cyclized (Cy) between flanking Pra and Az4) [biotin-PEG3-Cy(PWTHG)]
3,binds,HGRGH (N-terminal biotin-PEG3; triazole-cyclized (Cy) between flanking Pra and Az4) [biotin-PEG3-Cy(HGRGH)]
